PubChem BioAssay AID504793 | Drosophila RNAi Screening Center, 2011
Aim: 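Knock-downs allowing continued mitosis even though DNA is damaged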 (primary screen). Cells: Drosophila S2R+ cells. Reagents: long dsRNA against Drosophila genes, about 0.25 µg dsRNA per well. Timing: 4 days of dsRNA, then 4 hours of drug before read-out. Treatment: doxorubicin 0.5 µM for 4 hours to cause double-strand breaks, in cells also given a low, harmless dose of dsRNA against nbs to sensitise the assay. Measurement: 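Per-well count of mitotic cells stained for phospho-histone H3 after doxorubicin exposure, used as mitotic index; counts are raw and not normalised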. Scale: mitotic cells: higher = more cells in mitosis, weaker G2 arrest. Call rule: 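a call needs confirmation in secondary tests, with other dsRNAs and a check of mitotic timing without damage, not just a high primary count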. Meaning of the calls: active = confirmed in follow-up tests; inactive = not confirmed.
The deposit covers about 23,000 reagents; shown is an unselected part of those that have a named target and a result. In the full data, 62 (0.27%) got an active call. 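Calls come from follow-up tests whose scores are not deposited, so confirmed genes may have low counts here; counts are not normalised per plate.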 The raw values are shown without normalisation. Names joined by + are all predicted targets of the reagent.

Gene | DRSC id | mitotic cells, replicate 1 | activity call
mRpS29 | DRSC04398 | 5 | inactive
mRpS29 | DRSC27790 | 10 | inactive
CG18278 + CG30059 | DRSC05418 | 3 | inactive
CG11041 | DRSC06025 | 5 | inactive
CG11041 | DRSC29269 | 3 | inactive
mahe | DRSC17755 | 12 | inactive
mahe | DRSC24030 | 11 | inactive
Hsc70-5 | DRSC07442 | 14 | inactive
Hsc70-5 | DRSC24015 | 5 | inactive
ems | DRSC25044 | 6 | inactive
mon2 | DRSC03112 | 2 | inactive
CG32318 + Klp61F + Psf1 | DRSC23255 | 145 | inactive
CG32284 | DRSC08025 | 29 | inactive
Frl | DRSC09300 | 9 | inactive
Frl | DRSC10027 | 6 | inactive
Frl | DRSC10716 | 6 | inactive
Frl | DRSC28783 | 5 | inactive
CG13921 | DRSC08390 | 11 | inactive
CG13921 | DRSC25529 | 7 | inactive
mew | DRSC18971 | 8 | inactive
mew | DRSC20352 | 17 | inactive
Gfat2 | DRSC14598 | 7 | inactive
Gfat2 | DRSC26948 | 9 | inactive
Drsl3 | DRSC22630 | 14 | inactive
Drsl3 | DRSC29261 | 1 | inactive
Hr3 | DRSC07441 | 14 | inactive
Map60 | DRSC07464 | 4 | inactive
CG8750 | DRSC11037 | 4 | inactive
CG42353 + CG42354 | DRSC23154 | 13 | inactive
CG42353 + CG42354 | DRSC29165 | – | inactive
RpS7 | DRSC15394 | 4 | inactive
RpS7 | DRSC28468 | 5 | inactive
CG18004 | DRSC06705 | 7 | inactive
CG18004 | DRSC26317 | 3 | inactive
Naa80 | DRSC16429 | 5 | inactive
Naa80 | DRSC28038 | 5 | inactive
CHKov2 | DRSC14262 | 5 | inactive
CHKov2 | DRSC28882 | – | inactive
Or42a | DRSC04912 | 4 | inactive
CG42583 | DRSC22937 | 10 | inactive
CG42583 | DRSC26327 | 3 | inactive
sqh | DRSC18837 | 5 | inactive
sqh | DRSC23800 | 4 | inactive
CG13116 | DRSC02214 | 12 | inactive
CG13116 | DRSC21945 | 9 | inactive
CG13116 | DRSC26916 | 9 | inactive
cass | DRSC01850 | 6 | inactive
cass | DRSC29928 | 11 | inactive
hop | DRSC20340 | 9 | inactive
hop | DRSC23334 | 7 | inactive
hop | DRSC26551 | 11 | inactive
CG42816 + CG42815 | DRSC11230 | 2 | inactive
ctrip | DRSC12242 | 5 | inactive
ctrip | DRSC12287 | 2 | inactive
ctrip | DRSC22449 | 26 | inactive
ctrip | DRSC23512 | 1 | inactive
ctrip | DRSC27589 | 5 | inactive
CG42570 | DRSC09391 | 2 | inactive
CG10405 | DRSC14238 | 6 | inactive
Pc | DRSC24966 | 5 | inactive
CG1889 | DRSC18195 | 9 | inactive
CG1889 | DRSC27433 | 4 | inactive
CG1902 | DRSC06798 | 8 | inactive
SmD1 | DRSC09800 | 3 | inactive
SmD1 | DRSC28571 | 1 | inactive
CG6908 | DRSC16131 | 2 | inactive
CG6908 | DRSC25403 | 5 | inactive
Jon25Bii | DRSC03114 | 2 | inactive
Jon25Bii | DRSC29193 | 4 | inactive
CG6893 | DRSC10742 | 4 | inactive
Doc3 | DRSC10480 | 2 | inactive
Doc3 | DRSC28205 | 4 | inactive
Cpr78Cc | DRSC11846 | 4 | inactive
CG30036 | DRSC21334 | 25 | inactive
CG18853 | DRSC06795 | 4 | inactive
